Values joined by “and” are separate entries in the source; they are usually repeats but may differ in a detail not shown here. Equal values may be shown once. Some entries share one result that the patent states for a list of compounds.
Target: T1, c-Raf kinase (Lck-activated c-Raf, Raf-1) (Homo sapiens, UniProt P04049)
T1 construct: GST-c-Raf (from amino acid 302 to amino acid 648); made in house; host or cells: Sf9 insect cells (baculovirus; co-infection with full-length Lck)
Experiment: c-Raf (Raf-1) biochemical assay (radioactive filtermat assay, MEK-1 substrate)
Conditions: at 1 micromolar compound, 5 μM ATP, 32° C., 1 hour
Protocol: Biological Tests c-Raf (Raf-1) Biochemical Assay Purification of Proteins Used in the Assay
The c-Raf biochemical assay was performed with a c-Raf enzyme that was activated (phosphorylated) by Lck kinase. Lck-activated c-Raf (Lck/c-Raf) was produced in Sf9 insect cells by co-infecting cells with baculoviruses expressing, under the control of the polyhedrin promoter, GST-c-Raf (from amino acid 302 to amino acid 648) and Lck (full-length). Both baculoviruses were used at the multiplicity of infection of 2.5 and the cells were harvested 48 hours post infection.
MEK-1 protein was produced in Sf9 insect cells by infecting cells with the baculovirus expressing GST-MEK-1 (full-length) fusion protein at the multiplicity of infection of 5 and harvesting the cells 48 hours post infection. Similar purification procedure was used for GST-c-Raf 302-648 and GST-MEK-1.
Transfected cells were suspended at 100 mg of wet cell biomass per mL in a buffer containing 10 mM sodium phosphate, 140 mM sodium chloride pH 7.3, 0.5% Triton X-100 and the protease inhibitor cocktail. The cells were disrupted with Polytron homogenizer and centrifuged 30,000 g for 30 minutes. The 30,000 g supernatant was applied onto GSH-Sepharose. The resin was washed with a buffer containing 50 mM Tris, pH 8.0, 150 mM NaCl and 0.01% Triton X-100. The GST-tagged proteins were eluted with a solution containing 100 mM Glutathione, 50 mM Tris, pH 8.0, 150 mM NaCl and 0.01% Triton X-100. The purified proteins were dialyzed into a buffer containing 20 mM Tris, pH 7.5, 150 mM NaCl and 20% Glycerol.
Biochemical Assay Protocol and Results
The compounds were serially diluted in DMSO using three-fold dilutions to stock concentrations ranging typically from 50 μM to 20 nM (final concentrations in the assay range from 1 μM to 0.4 nM). The c-Raf biochemical assay was performed as a radioactive filtermat assay in 96-well Costar polypropylene plates (Costar 3365). The plates were loaded with 75 μL solution containing 50 mM HEPES pH 7.5, 70 mM NaCl, 80 ng of Lck/c-Raf and 1 μg MEK-1. Subsequently, 2 μL of the serially diluted individual compounds were added to the reaction, prior to the addition of ATP. The reaction was initiated with 25 μL ATP solution containing 5 μM ATP and 0.3 μCi [33P]-ATP. The plates were sealed and incubated at 32° C. for 1 hour. The reaction was quenched with the addition of 50 μl of 4% Phosphoric Acid and harvested onto P30 filtermats (PerkinElmer) using a Wallac Tomtec Harvester. Filtermats were washed with 1% Phosphoric Acid first and deinonized H2O second. The filters were dried in a microwave, soaked in scintillation fluid and read in a Wallac 1205 Betaplate Counter (Wallac Inc., Atlanta, Ga., U.S.A.). The results were expressed as percent inhibition. % Inhibition=[[…]]×100 where • Tib=(counts per minute with inhibitor)−(background) • Ti=(counts per minute without inhibitor)−(background)

inhibition of c-Raf kinase	also measured	SMILES
> 80% and > 40%	–	CNC(=O)c1cc(Oc2ccc(Cl)c(NC(=O)Nc3cc(F)cc4c3OCOC4)c2)ccn1 [Example 141]
> 80% and > 40%	–	CNC(=O)c1cc(Oc2ccc(NC(=O)Nc3cc(F)cc4c3OCOC4)c(Cl)c2)ccn1 [Example 142]
> 80% and > 40%	–	NC(=O)c1cc(Oc2ccc(NC(=O)Nc3cc(F)cc4c3OCOC4)c(F)c2)ccn1 [Example 143]
> 80% and > 40%	–	CNC(=O)c1cc(Oc2ccc(NC(=O)Nc3ccc4c(c3)C(F)(F)OC(F)(F)O4)c(SC)c2)ccn1 [Example 144]
> 80%	inhibition of c-Raf kinase (listed as example 149): > 40%	Cn1ncc2cc(NC(=O)Nc3cccc(Oc4ccnc(C(=O)Nc5cccnc5)c4)c3)ccc21 [Example 149, 4-[3-({[(1-methyl-1H-indazol-5-yl)amino]carbonyl}amino)phenoxy]-N-Pyridin-3-ylpyridine-2-carboxamide]
> 80%	inhibition of c-Raf kinase (listed as example 154): > 40%	O=C(Nc1ccc(Oc2ccnc(C(=O)NCCN3CCNCC3)c2)cc1)Nc1ccc2c(c1)C(F)(F)OC(F)(F)O2 [Example 154]
> 80%	inhibition of c-Raf kinase (listed as example 164): > 40%	COC(=O)CNC(=O)c1cc(Oc2ccc(NC(=O)Nc3ccc4c(cnn4C)c3)cc2)ccn1 [Example 164]
> 80%	inhibition of c-Raf kinase (listed as example 165): > 40%	Cn1ncc2cc(NC(=O)Nc3cccc(Oc4ccnc(C(=O)NCCN5CCCC5)c4)c3)ccc21 [Example 165]
> 80%	inhibition of c-Raf kinase (listed as example 167): > 40%	O=C(Nc1cccc(Oc2ccnc(C(=O)NCCN3CCCCC3)c2)c1)Nc1ccc2c(c1)C(F)(F)OC(F)(F)O2 [Example 167]
> 80% and > 40%	–	O=C(Nc1cccc(Oc2ccnc(C(=O)NCCCn3ccnc3)c2)c1)Nc1ccc2c(c1)C(F)(F)OC(F)(F)O2 [Example 170]
> 80% and > 40%	–	NC(=O)c1cc(Oc2cc(F)c(NC(=O)Nc3ccc4c(c3)C(F)(F)OC(F)(F)O4)cc2F)ccn1 [Example 171]
> 80% and > 40%	–	NC(=O)c1cc(Oc2ccc(NC(=O)Nc3ccc4c(c3)C(F)(F)OC(F)(F)O4)c(C(N)=O)c2)ccn1 [Example 172]
> 80% and > 40%	–	COc1cc(NC(=O)Nc2ccc3c(c2)C(F)(F)OC(F)(F)O3)ccc1Oc1ccnc(C(N)=O)c1 [Example 173]
> 80% and > 40%	–	COc1cc(NC(=O)Nc2ccc3c(c2)CCC3)ccc1Oc1ccnc(C(N)=O)c1 [Example 174]
